Results published in the supplement of paper PMC12067093, “Discovery and optimisation of a covalent ligand for TRIM25 and its application to targeted protein ubiquitination” (Chemical Science, 2025).
Some of the results follow.

Compound: CC1Cc2ccccc2N1C(=O)C1CCCN(C1)C(=O)CCl (mixture of isomers) [TRIM25 ligand 11 (diastereomer mixture)]
Assay: probe-labelled cysteine peptide fold change vs DMSO (competition) (log2 fold change); higher = less target engagement (more negative = stronger competition)
Details: THP-1, incubation time: 4 h
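Note: competitive chemoproteomic profiling in live THP-1 cells with an iodoacetamide desthiobiotin (IA-DTB) probe, comparing probe-labelled peptide intensities in compound-treated cells against DMSO-treated controls.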

Target	probe-labelled cysteine peptide fold change (10 µM)	probe-labelled cysteine peptide fold change (50 µM)
ORC5_O43913_63_TLELPHVFVNCVECFTLR (UniProt O43913)	0.267	0.215
OSBPL8_Q9BZF1_729_NEEWSCK (UniProt Q9BZF1)	0.0927	0.108
P4HA1_P13674_293_QKYEMLCR (UniProt P13674)	-0.0868	-0.162
PA2G4_Q9UQ80_85+87_GIAFPTSISVNNCVCHFSPLK (UniProt Q9UQ80)	0.241	-0.232
OPLAH_O14841_236_GHTACADAYLTPAIQR (UniProt O14841)	0.00254	0.159
PARP10_Q53GL7_768_GDCTILR (UniProt Q53GL7)	-0.126	0.0246
PARP14_Q460N5_351+353_CHCELTWSQLSGK (UniProt Q460N5)	0.0483	0.0107
OSBPL1A_Q9BXW6_739+746_CVLNFKPCGLFGK (UniProt Q9BXW6)	-0.0308	-0.0556
PAN2_Q504Q3_798_ELGSPEGVLVCPSIEELK (UniProt Q504Q3)	-0.158	-0.174
OLA1_Q9NTK5_187_KLKPEYDIMCK (UniProt Q9NTK5)	-0.26	-0.371
PAPOLA_P51003_677_TKTEEDETSEDANCLALSGHDK (UniProt P51003)	-0.114	-0.269
P4HA1_P13674_503_HAACPVLVGNK (UniProt P13674)	0.108	0.139
OTX1_P32242_340_LNFNSPDCLDYK (UniProt P32242)	0.161	-0.0204
OSTF1_Q92882_185_LAFDMATNAACASLLK (UniProt Q92882)	0.0162	-0.00932
PA2G4_Q9UQ80_85_GIAFPTSISVNNCVCHFSPLK (UniProt Q9UQ80)	0.00904	-0.193
P4HB_P07237_53+56_YLLVEFYAPWCGHCK (UniProt P07237)	-0.316	-0.77
OSBP_P22059_224_VEDLSTCNDLIAK (UniProt P22059)	0.0397	-0.0272
OPA1_O60313_874_HFVDSELECNDVVLFWR (UniProt O60313)	0.156	-0.0304
PARD3_Q8TEW0_66_LEHGDGGILDLDDILCDVADDK (UniProt Q8TEW0)	0.204	0.123
OSBPL9_Q96SU4_577_SILTVPWVELGGECNINCSK (UniProt Q96SU4)	0.311	0.198
PANK4_Q9NVE7_651_GTEVILACNSGPALNDVTHSESLIVAER (UniProt Q9NVE7)	-0.192	-0.17
PAK1IP1_Q9NWT1_288_KVPPSLLCEINTNAR (UniProt Q9NWT1)	-0.0366	0.0998

Target	probe-labelled cysteine peptide fold change (10 µM)	probe-labelled cysteine peptide fold change (50 µM)
OSBPL1A_Q9BXW6_412_ETCVALTDCLNLFTK (UniProt Q9BXW6)	-0.00619	0.161
OSTC_Q9NRP0_14_VPFLVLECPNLK (UniProt Q9NRP0)	-0.0633	0.00142
OPLAH_O14841_408_LLPASFPCIFGPGENQPLSPEASR (UniProt O14841)	-0.283	-0.252
P3H1_Q32P28_282_QNCVTELASHPSR (UniProt Q32P28)	0.18	0.126
OPA1_O60313_801_CNEEHPAYLASDEITTVR (UniProt O60313)	-0.314	0.0179
PARN_O95453_302_LVIGHNMLLDVMHTVHQFYCPLPADLSEFK (UniProt O95453)	-0.037	-0.277
PAICS_P22234_81+91_CGETAFIAPQCEMIPIEWVCR (UniProt P22234)	-0.528	-0.284
OPLAH_O14841_408_LLPASFPCIFGPGENQPLSPEASRK (UniProt O14841)	-0.0608	-0.0504
P4HB_P07237_53_YLLVEFYAPWCGHCK (UniProt P07237)	-0.313	-0.54
P4HA2_O15460_504_HAACPVLVGCK (UniProt O15460)	-0.0239	-0.0166
PABPN1_Q86U42_195_SIYVGNVDYGATAEELEAHFHGCGSVNR (UniProt Q86U42)	-0.00532	0.104
OSBPL5_Q9H0X9_233_CWLDALELALR (UniProt Q9H0X9)	-0.146	-0.165
OGT_O15294_323_LCPTHADSLNNLANIK (UniProt O15294)	0.0479	0.0711
PALD1_Q9ULE6_65_VAPVVITYNCK (UniProt Q9ULE6)	0.0634	0.16
ORC4_O43929_421_YPNCPTDVR (UniProt O43929)	-0.0685	-0.149
OSBPL3_Q9H4L5_718_NLHDDSCYCK (UniProt Q9H4L5)	0.205	0.232
PACSIN2_Q9UNF0_44_LCSDLMNCLHER (UniProt Q9UNF0)	-0.109	-0.0429
OTUB1_Q96FW1_212_EFCQQEVEPMCK (UniProt Q96FW1)	0.0465	-0.11
OPA1_O60313_801_CNEEHPAYLASDEITTVRK (UniProt O60313)	0.00749	-0.0711
OPLAH_O14841_466_VANEAMCRPIR (UniProt O14841)	0.0549	0.0439
OSBPL5_Q9H0X9_459_CCWFHPQTDSR (UniProt Q9H0X9)	-0.0592	0.0744
PAICS_P22234_100_CGETAFIAPQCEMIPIEWVCR (UniProt P22234)	0.00496	0.1

Whole records as entered above. Order of values: probe-labelled cysteine peptide fold change (10 µM)	probe-labelled cysteine peptide fold change (50 µM)
PALD1_Q9ULE6_65_VAPVVITYNCK (UniProt Q9ULE6) as listed: 0.0634	0.16
OGT_O15294_323_LCPTHADSLNNLANIK (UniProt O15294) as listed: 0.0479	0.0711
